Record: PubChem BioAssay AID652259 (Drosophila RNAi Screening Center, 2013)
The screen tested about 22,000 reagents; this is an unselected part of those that have a named target and a result. Of all reagents, 233 (1.1%) are marked active. 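Light values are raw, unnormalised plate reads; the ratio scores behind the reporter calls were not deposited.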 Reagents against one gene are numbered here. A plus sign joins genes that one reagent is predicted to hit. The record does not give: the amount of reagent, the time to read-out, the dose of the treatment.

Purpose: 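Knock-downs that push a Wingless-driven reporter up or down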 (primary screen)
Cell system: Drosophila clone 8 imaginal disc epithelial cells
Knock-down reagent: long dsRNA against Drosophila genes
Treatment: pathway stimulated by co-transfected Wingless expression plasmid
Detection: 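Dual luciferase reads per well after Wingless plasmid stimulation: reporter firefly light and Renilla control light; activity is firefly divided by Renilla, a ratio not deposited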
Direction: firefly reporter light: higher = more Wg reporter light, before normalisation; Renilla control light: higher = more transfected or surviving cells
Hit rule: 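a knock-down is a candidate when at least two out of four statistical tests show it departing from its plate mean; one test alone signals a weak candidate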
Calls: active = candidate regulator (raises or lowers reporter); inactive = not a candidate

The opening 2 entries, to show the layout:
reporter change call, replicate 1 | firefly reporter light, replicate 1 | firefly reporter light, replicate 2 | Renilla control light, replicate 1 | Renilla control light, replicate 2 | activity call | predicted target | reagent no.
– | 3084 | 3296 | 875 | 1590 | inactive | CG31445 | 1
– | 8485 | – | 3330 | – | inactive | CG5033 | 1

Results, from the first entry:
reporter change call, replicate 1 | firefly reporter light, replicate 1 | firefly reporter light, replicate 2 | Renilla control light, replicate 1 | Renilla control light, replicate 2 | activity call | predicted target | reagent no.
– | 3084 | 3296 | 875 | 1590 | inactive | CG31445 | 1
– | 8485 | – | 3330 | – | inactive | CG5033 | 1
– | 10178 | – | 1688 | – | inactive | dpr16 | 1
– | 4098 | – | 1302 | – | inactive | dpr16 | 2
– | 2096 | 6066 | 391 | 1872 | inactive | spag | 1
– | 1729 | 10578 | 989 | 4134 | inactive | NimC2 | 1
– | 2563 | 6141 | 1225 | 2240 | inactive | Fpgs2 | 1
– | 23264 | – | 10042 | – | inactive | CG9098 | 1
– | 7.79e5 | 7.34e5 | 3.18e5 | 2.96e5 | inactive | CG9098 | 2
– | 2422 | 8277 | 892 | 2215 | inactive | Gsc | 1
– | 12130 | – | 7347 | – | inactive | CG6937 + btn | 1
– | 6552 | – | 3369 | – | inactive | Polr3H | 1
– | 1796 | 7958 | 547 | 2554 | inactive | CG42360 | 1
– | 1668 | 5757 | 874 | 1063 | inactive | Mink | 1
– | 20033 | – | 3611 | – | inactive | Osi2 | 1
– | 12987 | – | 4149 | – | inactive | FASN1 | 1
– | 1546 | 5128 | 598 | 2405 | inactive | CG10470 | 1
– | 34924 | – | 6585 | – | inactive | Dok | 1
– | 5632 | – | 2131 | – | inactive | Aprt | 1
– | 2128 | 6400 | 684 | 2541 | inactive | CG9825 | 1
– | 6701 | – | 1801 | – | inactive | Dg | 1
– | 1712 | 5632 | 618 | 1749 | inactive | CG5958 | 1
– | 2588 | 5844 | 973 | 1862 | inactive | Fntb | 1
– | 3424 | 8949 | 1626 | 4112 | inactive | CG15140 | 1
– | 7.56e5 | 7.01e5 | 3.89e5 | 27639 | inactive | CG32115 | 1
– | 20752 | – | 7348 | – | inactive | CG3589 | 1
– | 10400 | – | 2983 | – | inactive | CG14451 | 1
Wg reporter activity raised | 9178 | – | 1300 | – | active | Crtc | 1
– | 6291 | – | 2359 | – | inactive | Iru | 1
– | 3661 | – | 791 | – | inactive | CG32642 | 1
– | 934 | 4908 | 384 | 2178 | inactive | CG14756 | 1
– | 15984 | – | 2250 | – | inactive | CG17202 | 1
– | 16928 | – | 4867 | – | inactive | Tsp42El | 1
– | 8981 | – | 4573 | – | inactive | CG34247 | 1
– | 7601 | – | 3232 | – | inactive | CG5608 | 1
– | 17429 | – | 9411 | – | inactive | CG4607 | 1
– | 8627 | – | 1386 | – | inactive | CG34284 | 1
– | 2387 | – | 1202 | – | inactive | Ilk | 1
– | 5024 | – | 2249 | – | inactive | CG13442 | 1
– | 6152 | – | 2017 | – | inactive | CG15120 | 1
– | 5029 | – | 2136 | – | inactive | AttB | 1
– | 6.46e5 | 5.99e5 | 1.75e5 | 9088 | inactive | dare + CG30033 | 1
– | 19440 | – | 5696 | – | inactive | CG33768 | 1
– | 4.99e5 | 4.71e5 | 1.84e5 | 1.98e5 | inactive | GalT1 | 1
– | 8593 | – | 3248 | – | inactive | CG17575 | 1
– | 2232 | 8074 | 778 | 3058 | inactive | Ddc | 1
– | 18755 | – | 6252 | – | inactive | Os-C | 1
– | 18262 | – | 14081 | – | inactive | tnc | 1
– | 20089 | – | 15163 | – | inactive | cnn | 1
– | 3313 | – | 1945 | – | inactive | cnn | 2
– | 16555 | – | 4682 | – | inactive | Fancd2 | 1
– | 3.61e5 | 3.91e5 | 1.52e5 | 11792 | inactive | Fancd2 | 2
– | 5264 | – | 2280 | – | inactive | CG12012 | 1
– | 2544 | 7660 | 978 | 2658 | inactive | Lint-1 + rtv | 1
– | 3853 | 11232 | 918 | 3162 | inactive | slbo | 1
– | 6729 | – | 1961 | – | inactive | CG1307 | 1
– | 17650 | – | 8656 | – | inactive | CG43341 | 1
– | 2884 | 6152 | 1530 | 1616 | inactive | CG11771 | 1
– | 5292 | – | 2333 | – | inactive | Cyp6a13 | 1
– | 6449 | – | 3008 | – | inactive | skl | 1
– | 7653 | – | 1872 | – | inactive | CG15185 | 1
– | 3157 | 5756 | 1115 | 2598 | inactive | CG3515 | 1
– | 3237 | 8228 | 417 | 2312 | inactive | RpL30 | 1
– | 5913 | 5883 | 1234 | 1200 | inactive | CR40450 + CG32767 | 1
– | 11837 | – | 3921 | – | inactive | Xxylt | 1
– | 14055 | – | 3264 | – | inactive | Flo1 | 1
– | 21213 | – | 18368 | – | inactive | Nup37 | 1
– | 13943 | – | 4346 | – | inactive | GC2 | 1
– | 5.40e5 | 5.43e5 | 1.57e5 | 1.63e5 | inactive | CG32071 | 1
– | 5536 | – | 2341 | – | inactive | Cln3 | 1
– | 2533 | – | 1553 | – | inactive | Gad1 | 1
– | 7.87e5 | 8.17e5 | 2.97e5 | 2.70e5 | inactive | Crg-1 | 1
– | 14419 | – | 11619 | – | inactive | CG4743 | 1
